Assay: peptide made by a vendor (Fmoc solid-phase peptide synthesis)
Conditions: whole synthesis, reversed-phase analytical HPLC

Substance: FITC-(Acp)-KKKKKRFSFKKSFKLSGFSFKKNKK
- purity (crude or final not stated): >96%

Reference: publication PMC8330795 (Drug Delivery, 2021)
